# In publication PMC9095593, “On Methods for the Measurement of the Apelin Receptor Ligand Apelin” (Scientific Reports, 2022):
# Experiment: Spiking recovery of sample preparation (magnetic beads) from K2EDTA plasma
# Parameters: species or system human
# Conditions: HPLC-MS/MS area, n = 6
substance,measurement,setting,value
"Apelin-36: synthetic apelin isoform of 36 amino acids, purchased from CPC Scientific / Phoenix Pharmaceuticals (LVQPRGSRNGPGPWQGGRRKFRRQRPRLSHKGPMPF; Apelin-36; UniProt Q9ULZ1 42-77, looked up)","Recovery % (area) Mean ± stdev, Plasma pH2.5","K2EDTA plasma stored at pH 2.5, fixed concentration added before magnetic beads vs into the eluent",75.02 ± 7.46%
same,"Recovery % (area) Mean ± stdev, Plasma pH 4.5","K2EDTA plasma stored at pH 4.5, fixed concentration added before magnetic beads vs into the eluent",83.15 ± 11.87%
same,"Recovery % (area) Mean ± stdev, Plasma","K2EDTA plasma without acidification, fixed concentration added before magnetic beads vs into the eluent",83.34 ± 3.66%
